Results: the supplement of paper PMC10849652
The list shows a part of the results.

The chains behind the UniProt entries cited, without tags or fusion partners. Where a name states a change or a piece, a line headed by the entry shows the natural chain unless it says otherwise.
UniProt P49327, whole entry, looked up: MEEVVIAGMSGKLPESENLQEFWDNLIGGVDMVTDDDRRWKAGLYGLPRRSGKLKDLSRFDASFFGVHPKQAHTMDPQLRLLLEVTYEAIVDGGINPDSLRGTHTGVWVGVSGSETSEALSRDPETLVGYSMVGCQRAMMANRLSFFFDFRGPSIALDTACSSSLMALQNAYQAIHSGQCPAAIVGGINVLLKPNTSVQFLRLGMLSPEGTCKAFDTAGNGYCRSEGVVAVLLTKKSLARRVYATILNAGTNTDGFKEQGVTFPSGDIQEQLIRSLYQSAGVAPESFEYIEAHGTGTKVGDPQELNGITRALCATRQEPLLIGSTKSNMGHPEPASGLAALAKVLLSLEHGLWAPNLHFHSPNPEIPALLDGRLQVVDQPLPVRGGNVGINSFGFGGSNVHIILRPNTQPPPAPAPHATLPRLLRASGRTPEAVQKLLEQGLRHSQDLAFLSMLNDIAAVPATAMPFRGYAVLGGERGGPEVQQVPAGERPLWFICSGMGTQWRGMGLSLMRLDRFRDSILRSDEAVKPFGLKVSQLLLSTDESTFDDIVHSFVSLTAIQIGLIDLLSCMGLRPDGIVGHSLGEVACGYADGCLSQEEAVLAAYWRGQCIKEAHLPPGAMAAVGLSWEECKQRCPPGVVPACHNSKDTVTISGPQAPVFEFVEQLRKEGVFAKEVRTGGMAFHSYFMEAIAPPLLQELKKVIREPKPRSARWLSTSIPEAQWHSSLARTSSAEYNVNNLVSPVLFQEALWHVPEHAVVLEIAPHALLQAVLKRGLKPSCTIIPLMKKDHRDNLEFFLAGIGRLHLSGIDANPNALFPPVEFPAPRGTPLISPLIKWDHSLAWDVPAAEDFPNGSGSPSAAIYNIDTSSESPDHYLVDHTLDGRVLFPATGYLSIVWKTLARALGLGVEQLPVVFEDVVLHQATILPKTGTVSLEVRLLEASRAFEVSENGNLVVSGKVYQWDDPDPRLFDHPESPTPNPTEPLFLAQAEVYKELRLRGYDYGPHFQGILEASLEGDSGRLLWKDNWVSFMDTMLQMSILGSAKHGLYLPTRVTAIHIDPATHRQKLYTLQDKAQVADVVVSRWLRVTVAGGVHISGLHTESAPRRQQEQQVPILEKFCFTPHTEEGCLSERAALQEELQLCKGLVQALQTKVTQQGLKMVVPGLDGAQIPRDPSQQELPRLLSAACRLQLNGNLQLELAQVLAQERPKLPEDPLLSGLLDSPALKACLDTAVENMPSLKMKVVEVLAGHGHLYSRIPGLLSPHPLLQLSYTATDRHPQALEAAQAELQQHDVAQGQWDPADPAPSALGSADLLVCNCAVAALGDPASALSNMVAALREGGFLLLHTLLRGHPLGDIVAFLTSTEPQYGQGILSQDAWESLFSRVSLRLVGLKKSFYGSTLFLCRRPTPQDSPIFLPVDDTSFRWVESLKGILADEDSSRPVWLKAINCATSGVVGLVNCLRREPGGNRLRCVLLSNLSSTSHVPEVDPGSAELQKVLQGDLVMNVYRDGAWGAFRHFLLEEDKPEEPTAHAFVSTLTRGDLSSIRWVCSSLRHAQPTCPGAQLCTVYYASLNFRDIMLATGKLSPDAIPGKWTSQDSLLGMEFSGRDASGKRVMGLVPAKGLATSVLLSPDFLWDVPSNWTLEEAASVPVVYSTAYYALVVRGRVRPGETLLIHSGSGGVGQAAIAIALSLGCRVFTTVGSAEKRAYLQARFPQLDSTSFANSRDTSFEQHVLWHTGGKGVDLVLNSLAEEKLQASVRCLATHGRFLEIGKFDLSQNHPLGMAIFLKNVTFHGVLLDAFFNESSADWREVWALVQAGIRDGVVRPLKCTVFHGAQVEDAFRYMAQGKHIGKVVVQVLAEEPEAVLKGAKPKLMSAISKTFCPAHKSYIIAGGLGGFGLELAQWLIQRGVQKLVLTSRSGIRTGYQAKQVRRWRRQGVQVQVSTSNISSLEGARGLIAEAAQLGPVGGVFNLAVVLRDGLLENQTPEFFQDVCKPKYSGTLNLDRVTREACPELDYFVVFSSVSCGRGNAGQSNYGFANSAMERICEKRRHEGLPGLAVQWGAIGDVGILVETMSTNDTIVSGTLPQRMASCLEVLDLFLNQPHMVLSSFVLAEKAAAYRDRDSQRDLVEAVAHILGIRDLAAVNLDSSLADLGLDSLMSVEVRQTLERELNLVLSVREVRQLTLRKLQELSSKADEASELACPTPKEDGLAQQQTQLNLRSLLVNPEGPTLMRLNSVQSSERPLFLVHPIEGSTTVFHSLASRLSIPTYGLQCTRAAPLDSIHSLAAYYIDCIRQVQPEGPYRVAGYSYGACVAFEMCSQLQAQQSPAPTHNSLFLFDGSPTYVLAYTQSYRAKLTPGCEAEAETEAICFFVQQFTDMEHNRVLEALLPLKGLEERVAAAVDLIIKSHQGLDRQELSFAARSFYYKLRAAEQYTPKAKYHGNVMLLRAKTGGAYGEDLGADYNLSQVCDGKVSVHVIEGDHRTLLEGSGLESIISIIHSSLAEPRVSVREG
UniProt P21333, whole entry, looked up: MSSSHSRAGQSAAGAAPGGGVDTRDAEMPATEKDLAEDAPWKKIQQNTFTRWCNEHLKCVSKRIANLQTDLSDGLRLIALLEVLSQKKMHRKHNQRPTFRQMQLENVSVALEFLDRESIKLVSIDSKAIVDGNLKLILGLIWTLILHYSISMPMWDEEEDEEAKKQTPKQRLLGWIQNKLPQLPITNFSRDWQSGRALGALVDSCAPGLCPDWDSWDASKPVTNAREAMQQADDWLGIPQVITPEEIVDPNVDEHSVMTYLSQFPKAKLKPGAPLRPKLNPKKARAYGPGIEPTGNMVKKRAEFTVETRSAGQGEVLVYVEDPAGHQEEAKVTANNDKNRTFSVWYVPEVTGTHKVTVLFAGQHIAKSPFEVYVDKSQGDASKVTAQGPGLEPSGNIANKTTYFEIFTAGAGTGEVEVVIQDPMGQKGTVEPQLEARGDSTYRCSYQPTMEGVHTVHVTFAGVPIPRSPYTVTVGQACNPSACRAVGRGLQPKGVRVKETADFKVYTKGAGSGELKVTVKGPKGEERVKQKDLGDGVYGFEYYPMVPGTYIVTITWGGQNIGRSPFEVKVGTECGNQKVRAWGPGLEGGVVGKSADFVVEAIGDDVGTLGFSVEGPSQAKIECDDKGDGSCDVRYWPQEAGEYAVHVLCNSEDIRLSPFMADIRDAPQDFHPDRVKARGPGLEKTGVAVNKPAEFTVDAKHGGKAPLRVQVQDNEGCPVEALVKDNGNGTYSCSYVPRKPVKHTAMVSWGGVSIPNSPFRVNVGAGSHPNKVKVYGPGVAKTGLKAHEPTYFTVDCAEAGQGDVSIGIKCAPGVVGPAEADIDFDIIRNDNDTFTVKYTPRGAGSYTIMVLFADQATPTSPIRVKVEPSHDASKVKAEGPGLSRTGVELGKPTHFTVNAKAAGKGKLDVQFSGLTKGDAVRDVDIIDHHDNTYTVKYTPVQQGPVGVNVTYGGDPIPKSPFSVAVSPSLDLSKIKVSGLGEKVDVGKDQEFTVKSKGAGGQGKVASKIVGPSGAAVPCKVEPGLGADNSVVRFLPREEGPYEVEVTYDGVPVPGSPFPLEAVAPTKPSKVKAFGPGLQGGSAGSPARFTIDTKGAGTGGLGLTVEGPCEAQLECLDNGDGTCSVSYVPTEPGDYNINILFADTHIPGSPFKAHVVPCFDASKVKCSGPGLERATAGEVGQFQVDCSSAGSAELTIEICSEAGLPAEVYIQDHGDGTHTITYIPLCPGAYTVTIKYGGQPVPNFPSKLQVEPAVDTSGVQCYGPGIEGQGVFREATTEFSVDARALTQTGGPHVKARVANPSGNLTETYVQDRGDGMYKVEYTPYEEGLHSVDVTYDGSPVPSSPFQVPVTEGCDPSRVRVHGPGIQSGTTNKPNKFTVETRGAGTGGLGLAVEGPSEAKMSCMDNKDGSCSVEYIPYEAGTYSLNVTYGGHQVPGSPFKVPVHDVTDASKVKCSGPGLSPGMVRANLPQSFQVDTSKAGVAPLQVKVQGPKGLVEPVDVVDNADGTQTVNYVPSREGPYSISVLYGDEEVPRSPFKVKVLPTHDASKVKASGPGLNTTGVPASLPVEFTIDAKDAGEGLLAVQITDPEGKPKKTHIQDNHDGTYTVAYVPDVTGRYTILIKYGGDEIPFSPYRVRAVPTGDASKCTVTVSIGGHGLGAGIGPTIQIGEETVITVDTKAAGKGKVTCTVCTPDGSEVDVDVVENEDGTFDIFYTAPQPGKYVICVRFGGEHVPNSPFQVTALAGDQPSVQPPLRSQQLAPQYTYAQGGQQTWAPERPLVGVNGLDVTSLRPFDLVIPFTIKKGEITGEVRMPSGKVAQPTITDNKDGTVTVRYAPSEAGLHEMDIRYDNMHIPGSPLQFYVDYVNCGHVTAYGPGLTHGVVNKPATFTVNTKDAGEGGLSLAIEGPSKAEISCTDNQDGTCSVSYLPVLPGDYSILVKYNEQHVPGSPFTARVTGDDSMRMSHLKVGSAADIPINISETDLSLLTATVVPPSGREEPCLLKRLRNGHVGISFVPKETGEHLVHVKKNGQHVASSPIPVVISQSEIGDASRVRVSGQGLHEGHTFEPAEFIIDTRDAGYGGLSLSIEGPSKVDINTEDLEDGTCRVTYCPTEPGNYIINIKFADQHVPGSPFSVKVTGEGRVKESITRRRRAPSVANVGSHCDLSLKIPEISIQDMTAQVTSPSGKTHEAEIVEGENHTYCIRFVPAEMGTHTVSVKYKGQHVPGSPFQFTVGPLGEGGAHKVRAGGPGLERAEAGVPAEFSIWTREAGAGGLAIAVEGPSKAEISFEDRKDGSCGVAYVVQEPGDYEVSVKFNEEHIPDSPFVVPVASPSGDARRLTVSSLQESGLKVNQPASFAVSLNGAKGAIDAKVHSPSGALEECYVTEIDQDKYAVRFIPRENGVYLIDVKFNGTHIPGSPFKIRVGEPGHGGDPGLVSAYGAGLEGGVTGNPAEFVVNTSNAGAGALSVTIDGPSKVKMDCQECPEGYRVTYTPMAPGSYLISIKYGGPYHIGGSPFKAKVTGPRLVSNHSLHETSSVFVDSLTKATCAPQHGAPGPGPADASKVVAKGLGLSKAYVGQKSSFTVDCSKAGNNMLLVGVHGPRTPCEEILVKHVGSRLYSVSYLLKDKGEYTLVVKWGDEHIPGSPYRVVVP
UniProt Q9NW38: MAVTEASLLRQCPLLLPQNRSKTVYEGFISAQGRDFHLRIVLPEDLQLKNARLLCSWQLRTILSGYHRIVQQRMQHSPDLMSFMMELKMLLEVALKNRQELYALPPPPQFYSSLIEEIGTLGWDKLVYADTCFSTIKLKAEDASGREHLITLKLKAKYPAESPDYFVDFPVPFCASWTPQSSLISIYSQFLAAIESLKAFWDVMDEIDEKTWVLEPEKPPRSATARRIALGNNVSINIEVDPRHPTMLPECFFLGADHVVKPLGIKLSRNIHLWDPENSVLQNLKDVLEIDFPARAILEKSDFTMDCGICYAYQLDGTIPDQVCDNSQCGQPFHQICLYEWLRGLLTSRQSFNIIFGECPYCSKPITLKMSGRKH
UniProt O94887: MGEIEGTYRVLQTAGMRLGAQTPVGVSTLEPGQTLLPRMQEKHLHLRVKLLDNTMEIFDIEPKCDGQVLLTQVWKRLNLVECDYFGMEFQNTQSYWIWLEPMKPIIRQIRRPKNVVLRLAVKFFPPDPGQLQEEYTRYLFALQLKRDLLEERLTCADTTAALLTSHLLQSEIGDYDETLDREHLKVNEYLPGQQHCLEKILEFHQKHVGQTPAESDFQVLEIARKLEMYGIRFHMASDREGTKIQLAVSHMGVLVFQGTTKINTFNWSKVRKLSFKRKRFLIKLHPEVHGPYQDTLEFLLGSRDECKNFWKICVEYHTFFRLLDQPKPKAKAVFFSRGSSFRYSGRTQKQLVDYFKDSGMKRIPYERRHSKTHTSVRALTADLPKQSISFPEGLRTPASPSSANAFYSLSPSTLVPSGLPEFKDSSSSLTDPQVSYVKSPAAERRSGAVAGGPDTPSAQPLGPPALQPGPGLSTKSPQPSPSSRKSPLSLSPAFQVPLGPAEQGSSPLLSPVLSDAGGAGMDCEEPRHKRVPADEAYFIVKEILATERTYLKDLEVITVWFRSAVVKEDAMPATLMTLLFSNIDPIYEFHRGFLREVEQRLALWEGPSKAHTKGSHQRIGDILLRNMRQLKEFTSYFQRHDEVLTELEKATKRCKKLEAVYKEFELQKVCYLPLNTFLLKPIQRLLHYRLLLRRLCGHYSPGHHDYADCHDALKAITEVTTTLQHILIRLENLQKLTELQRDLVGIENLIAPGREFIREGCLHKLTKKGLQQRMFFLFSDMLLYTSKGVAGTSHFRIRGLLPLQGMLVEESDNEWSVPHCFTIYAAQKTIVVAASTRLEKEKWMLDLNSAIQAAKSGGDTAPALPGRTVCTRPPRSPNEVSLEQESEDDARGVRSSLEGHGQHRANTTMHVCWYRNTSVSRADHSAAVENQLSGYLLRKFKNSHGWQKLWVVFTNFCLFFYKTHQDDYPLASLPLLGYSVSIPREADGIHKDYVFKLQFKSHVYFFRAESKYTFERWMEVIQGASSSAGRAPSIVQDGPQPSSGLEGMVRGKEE

Columns and labels:
Test in all cases: log2 fold change, soluble protein after heating vs DMSO (PISA); higher = thermal stabilisation; K562 lysate, 10 uM; active = over 0.2 and 3.5 SD of the protein, either way, in both replicates (recomputed)
[1] = compound: NCC(=O)Nc1ccc(-n2nc(C(F)(F)F)cc2-c2ccc3c(ccc4ccccc43)c2)cc1
Outline: (§1)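 Log-two fold change in thermal stability relative to solvent controls is reported from duplicates. For each sample, crude K562 extract from dounce-homogenised pellets in PBS pH 7.4 with 1 mM MgCl2, at 1 mg/mL protein, was treated with 10 μM compound for 30 min. Aliquots heated for 3 min across 48°C-58°C were pooled, brought to 0.5% NP-40 at 4°C and cleared at 21,000xg for 90 min. The supernatant was quantified by TMTpro 16plex LC-MS/MS with channel sums equalised.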

vorinostat = compound: O=C(CCCCCCC(=O)Nc1ccccc1)NO [vorinostat]
Outline: as §1

silmitasertib = compound: O=C(O)c1ccc2c(c1)nc(Nc1cccc(Cl)c1)c1ccncc12 [silmitasertib]
Outline: as §1

[2] = compound: O=C1NC(=O)C(c2cnc3ccccn23)=C1c1cn2c3c(cc(F)cc13)CN(C(=O)N1CCCCC1)CC2
Outline: as §1

entospletinib = compound: c1cn2cc(-c3ccc4cn[nH]c4c3)nc(Nc3ccc(N4CCOCC4)cc3)c2n1 [entospletinib]
Outline: as §1

Measured: log2 fold change

FASN (UniProt P49327)
inactive: [1] -0.02 | vorinostat -0.037 | silmitasertib 0.021 | [2] -0.003 | entospletinib 0.035

FLNA (UniProt P21333)
inactive: [1] 0.022 | vorinostat -0.07 | silmitasertib -0.005 | [2] 0.02 | entospletinib 0.017

FLYWCH1 isoform 3 (UniProt Q4VC44)
inactive: [2] 0.022

FANCL isoform 2 (UniProt Q9NW38)
inactive: vorinostat -0.473 | silmitasertib 0.08 | [2] -0.076 | entospletinib 0.101

FBXL4 (UniProt Q9UKA2)
inactive: vorinostat -0.01 | silmitasertib -0.08 | entospletinib -0.009

FARP2 (UniProt O94887)
inactive: vorinostat 0.029 | silmitasertib -0.017 | [2] 0.038
